Consider eight molecules from patent publication US20260266848A1, “COMPOSITIONS AND METHODS FOR DIAGNOSING AND TREATING DYSTONIA” (Duke University, priority 2023, published 2026).

B1: GALNTL6 (protein, UniProt Q49A17 1-601, looked up)
Polypeptide …: MKRKQKRFLQMTLLFTVALIFLPNVGLWSLYKDKHLVKSAEPGEQQTFPLGLGDGQFYSWTDGLRRKDWHDYESIQKEAMRSGKGEHGKPYPLTEEDHDDSAYRENGFNIFVSNNIALERSLPDIRHANCKHKMYLERLPNTSIIIPFHNEGWTSLLRTIHSIINRTPGSLIAEIILVDDFSEREHLKDKLEEYMARFSKVRIVRTKKREGLIRTRLLGASMARGEVLTFLDSHCEVNVNWLPPLLNQIALNHKTIVCPMIDVIDHNHFGYEAQAGDAMRGAFDWEMYYKRIPIPPELQRADPSDPFESPVMAGGLFAVDRKWFWELGGYDPGLEIWGGEQYEISFKVWMCGGEMFDVPCSRVGHIYRKYVPYKVPSGTSLARNLKRVAETWMDEFAEYIYQRRPEYRHLSTGDISAQKELRKQLKCKDFKWFMAAVAWDVPKYYPPVEPPPAAWGEIRNVAANLCVDSKHGATGTELRLDICVKDGSERTWSHEQLFTFGWREDIRPGEPLHTRKFCFDAISHNSPVTLYDCHGMKGNQLWGYRKDRTLFHPVSNSCMDCNPAEKKIFMARCDPLSETQQWIFEHINMTVLEKFNHHANS
B2: ACAA1 (protein, UniProt P09110 27-424, looked up)
3-ketoacyl-CoA thiolase, …: LSGAPQASAADVVVVHGRRTAICRAGRGGFKDTTPDELLSAVMTAVLKDVNLRPEQLGDICVGNVLQPGAGAIMARIAQFLSDIPETVPLSTVNRQCSSGLQAVASIAGGIRNGSYDIGMACGVESMSLADRGNPGNITSRLMEKEKARDCLIPMGITSENVAERFGISREKQDTFALASQQKAARAQSKGCFQAEIVPVTTTVHDDKGTKRSITVTQDEGIRPSTTMEGLAKLKPAFKKDGSTTAGNSSQVSDGAAAILLARRSKAEELGLPILGVLRSYAVVGVPPDIMGIGPAYAIPVALQKAGLTVSDVDIFEINEAFASQAAYCVEKLRLPPEKVNPLGGAVALGHPLGCTGARQVITLLNELKRRGKRAYGVVSMCIGTGMGAAAVFEYPGN
B3: SLC25A6 (protein, UniProt P12236 1-298, looked up)
ADP/ATP translocase 3: MTEQAISFAKDFLAGGIAAAISKTAVAPIERVKLLLQVQHASKQIAADKQYKGIVDCIVRIPKEQGVLSFWRGNLANVIRYFPTQALNFAFKDKYKQIFLGGVDKHTQFWRYFAGNLASGGAAGATSLCFVYPLDFARTRLAADVGKSGTEREFRGLGDCLVKITKSDGIRGLYQGFSVSVQGIIIYRAAYFGVYDTAKGMLPDPKNTHIVVSWMIAQTVTAVAGVVSYPFDTVRRRMMMQSGRKGADIMYTGTVDCWRKIFRDEGGKAFFKGAWSNVLRGMGGAFVLVLYDELKKVI
B4: TUBA1C (protein, UniProt Q9BQE3 1-449, looked up)
Tubulin alpha-1C chain: MRECISIHVGQAGVQIGNACWELYCLEHGIQPDGQMPSDKTIGGGDDSFNTFFSETGAGKHVPRAVFVDLEPTVIDEVRTGTYRQLFHPEQLITGKEDAANNYARGHYTIGKEIIDLVLDRIRKLADQCTGLQGFLVFHSFGGGTGSGFTSLLMERLSVDYGKKSKLEFSIYPAPQVSTAVVEPYNSILTTHTTLEHSDCAFMVDNEAIYDICRRNLDIERPTYTNLNRLISQIVSSITASLRFDGALNVDLTEFQTNLVPYPRIHFPLATYAPVISAEKAYHEQLTVAEITNACFEPANQMVKCDPRHGKYMACCLLYRGDVVPKDVNAAIATIKTKRTIQFVDWCPTGFKVGINYQPPTVVPGGDLAKVQRAVCMLSNTTAVAEAWARLDHKFDLMYAKRAFVHWYVGEGMEEGEFSEAREDMAALEKDYEEVGADSADGEDEGEEY
B5: ATP5F1C (protein, UniProt P36542 26-298, looked up)
ATP synthase F(1) complex …: ATLKDITRRLKSIKNIQKITKSMKMVAAAKYARAERELKPARIYGLGSLALYEKADIKGPEDKKKHLLIGVSSDRGLCGAIHSSIAKQMKSEVATLTAAGKEVMLVGIGDKIRGILYRTHSDQFLVAFKEVGRKPPTFGDASVIALELLNSGYEFDEGSIIFNKFRSVISYKTEEKPIFSLNTVASADSMSIYDDIDADVLQNYQEYNLANIIYYSLKESTTSEQSARMTAMDNASKNASEMIDKLTLTFNRTRQAVITKELIEIISGAAALD
B6: PAFAH1B2 (protein, UniProt P68402 2-229, looked up)
Platelet-activating factor …: SQGDSNPAAIPHAAEDIQGDDRWMSQHNRFVLDCKDKEPDVLFVGDSMVQLMQQYEIWRELFSPLHALNFGIGGDTTRHVLWRLKNGELENIKPKVIVVWVGTNNHENTAEEVAGGIEAIVQLINTRQPQAKIIVLGLLPRGEKPNPLRQKNAKVNQLLKVSLPKLANVQLLDTDGGFVHSDGAISCHDMFDFLHLTGGGYAKICKPLHELIMQLLEETPEEKQTTIA
B7: PTGDR2 (protein, UniProt Q9Y5Y4 1-395, looked up)
Prostaglandin D2 receptor 2: MSANATLKPLCPILEQMSRLQSHSNTSIRYIDHAAVLLHGLASLLGLVENGVILFVVGCRMRQTVVTTWVLHLALSDLLASASLPFFTYFLAVGHSWELGTTFCKLHSSIFFLNMFASGFLLSAISLDRCLQVVRPVWAQNHRTVAAAHKVCLVLWALAVLNTVPYFVFRDTISRLDGRIMCYYNVLLLNPGPDRDATCNSRQVALAVSKFLLAFLVPLAIIASSHAAVSLRLQHRGRRRPGRFVRLVAAVVAAFALCWGPYHVFSLLEARAHANPGLRPLVWRGLPFVTSLAFFNSVANPVLYVLTCPDMLRKLRRSLRTVLESVLVDDSELGGAGSSRRRRTSSTARSASPLALCSRPEEPRGPARLLGWLLGSCAASPQTGPLNRALSSTSS
B8: ACOX3 (protein, UniProt O15254 2-700, looked up)
Peroxisomal acyl-coenzyme A …: ASTVEGGDTALLPEFPRGPLDAYRARASFSWKELALFTEGEGMLRFKKTIFSALENDPLFARSPGADLSLEKYRELNFLRCKRIFEYDFLSVEDMFKSPLKVPALIQCLGMYDSSLAAKYLLHSLVFGSAVYSSGSERHLTYIQKIFRMEIFGCFALTELSHGSNTKAIRTTAHYDPATEEFIIHSPDFEAAKFWVGNMGKTATHAVVFAKLCVPGDQCHGLHPFIVQIRDPKTLLPMPGVMVGDIGKKLGQNGLDNGFAMFHKVRVPRQSLLNRMGDVTPEGTYVSPFKDVRQRFGASLGSLSSGRVSIVSLAILNLKLAVAIALRFSATRRQFGPTEEEEIPVLEYPMQQWRLLPYLAAVYALDHFSKSLFLDLVELQRGLASGDRSARQAELGREIHALASASKPLASWTTQQGIQECREACGGHGYLAMNRLGVLRDDNDPNCTYEGDNNILLQQTSNYLLGLLAHQVHDGACFRSPLKSVDFLDAYPGILDQKFEVSSVADCLDSAVALAAYKWLVCYLLRETYQKLNQEKRSGSSDFEARNKCQVSHGRPLALAFVELTVVQRFHEHVHQPSVPPSLRAVLGRLSALYALWSLSRHAALLYRGGYFSGEQAGEVLESAVLALCSQLKDDAVALVDVIAPPDFVLDSPIGRADGELYKNLWGAVLQESKVLERASWWPEFSVNKPVIGSLKSKL

In one series the test system is DYT1 patient plasma derived EVs. As to the kind of experiment: Plasma-derived EV proteomics (ExoQuick ULTRA, DIA LC/MS/MS), DYT1 vs Healthy Controls. To be noted: DYT1 patients as compared to healthy controls. Also noted: species or system human. Put shortly:
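Plasma EVs enriched with ExoQuick ULTRA; 500 ng per sample run on EvoSep One UPLC (SPD30 gradient, ~5–30% acetonitrile/0.1% formic acid, 50 C) coupled to Orbitrap Astral. DIA mode: full MS r=240,000, m/z 380-980; 4 m/z fixed windows, HCD 27%.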
In the case of B1, the Log2FC is recorded as −2.1098.

The series is the same for the next values; noted with them: Hs. Plasma EVs (DYT1/WT).
With B2, the Directionality result is on record as “DOWN”.

Still in this series, the particulars now being: Hs. Plasma EVs (DYT1/WT); protein level, human patient derived EVs by genotype.
For the molecule B2, the Log2_FC is recorded as -0.8622.

The series is the same for the next values; noted with them: directionality of protein change, human plasma derived EVs, DYT1 vs WT(HC).
With B2, the “Hs. Plasma EVs (DYT1/WT)” value is “DOWN”.

Staying with this series, now noted: protein abundance, DYT1 patients.
B3: the “Mean DYT1” value turned out to be 4.947.

For B1, the “Mean DYT1” value is recorded as 5.463.

As for B2, the “Mean DYT1” value is reported as 3.044.

With B4, the “Mean DYT1” value turned out to be 6.242.

As to B5, the “Mean DYT1” value is recorded as 7.830.

Take B6: the “Mean DYT1” value turned out to be 4.198.

For B7, the “Mean DYT1” value is 12.868.

As to B8, the “Mean DYT1” value is 4.229.

The series is the same for the next values; noted with them: protein abundance, healthy controls (HC).
Turning to B3, the “Mean HC” value was determined as 4.05.

For B1, the “Mean HC” value stood at 7.57.

In the case of B2, the “Mean HC” value is 3.91.

Turning to B4, the “Mean HC” value amounted to 7.71.

As to B5, the “Mean HC” value was 8.69.

Regarding B6, the “Mean HC” value turned out to be 3.22.

Turning to B7, the “Mean HC” value is 14.27.

With B8, the “Mean HC” value was found to be 4.92.
